# Laboratory results reported in publication PMC2825241, “Uptake of purines in Plasmodium falciparum-infected human erythrocytes is mostly mediated by the human Equilibrative Nucleoside Transporter and the human Facilitative Nucleobase Transporter” (2010).
# Biological target: human facilitative nucleobase transporter (hFNT1)
smiles,measurement,value
NS(=O)(=O)c1cc(C(=O)O)c(NCc2ccco2)cc1Cl [furosemide],Ki,9.1 ± 1.7 µM
